PubChem BioAssay AID1259308 | NCATS, 2017
This is a random part of about 59,000 reagents tested. In the full data, about 1,510 (2.6%) are marked active. 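Calls use total luciferase alone and ignore viability, so some active siRNAs may act by altering cell number.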 The numbers tell different reagents against one gene apart.

Test: 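Candidate targets for better recombinant protein yield in mammalian cells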 (primary screen)
System: human HEK293 embryonic kidney cells stably expressing firefly luciferase (HEK-CMV-Luc2-Hygro)
Reagent: single siRNA against human genes, 0.8 pmol siRNA per well
Duration: 72 h
Measured: 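Reporter luminescence and viable-cell signal on separate replicate plates, given as percent of non-targeting control and median/MAD z-scores, plus per-cell luciferase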
Reading the numbers: total luciferase, z-score and total luciferase, % of control: higher = more reporter protein produced; luciferase per cell, z-score: higher = more reporter output per viable cell; viable cells, % of control: higher = more viable cells
Active means: 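An siRNA counts as active if its total luciferase robust z-score exceeds 3; genes with two or more such siRNAs out of three were retested with fresh siRNAs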
Calls: active = raised luciferase; inactive = no rise

no.	gene	reagent no.	total luciferase, z-score	total luciferase, % of control	luciferase per cell, z-score	viable cells, % of control	call
1	SUV39H2	1	-1.2	58	-1.18	88.4	inactive
2	SUV39H2	2	-0.96	62.8	-0.794	86.5	inactive
3	SUV39H2	3	1.21	106	0.176	113	inactive
4	MIR2052HG	1	0.191	85.7	-0.133	99.2	inactive
5	MIR2052HG	2	0.778	97.4	0.433	97.1	inactive
6	MIR2052HG	3	2.09	123	1.78	86.2	inactive
7	SERPINH1	1	-0.756	66.8	-1.35	107	inactive
8	SERPINH1	2	-0.0419	81.1	1.01	69.4	inactive
9	SERPINH1	3	-1.19	58.3	-1.72	102	inactive
10	SDR9C7	1	-0.831	65.3	-0.856	91.5	inactive
11	SDR9C7	2	1.84	119	1.42	91.1	inactive
12	SDR9C7	3	-0.0846	80.2	-0.72	108	inactive
13	PCDHGB4	1	0.324	88.3	-0.41	110	inactive
14	PCDHGB4	2	0.0183	82.3	-0.573	107	inactive
15	PCDHGB4	3	0.217	86.2	-0.565	112	inactive
16	C8orf82	1	-0.472	72.5	1.06	61.3	inactive
17	C8orf82	2	0.359	89	0.267	92.7	inactive
18	C8orf82	3	-0.0821	80.3	-0.302	97.1	inactive
19	TMPRSS2	1	0.197	85.8	-0.648	114	inactive
20	TMPRSS2	2	0.449	90.8	0.296	93.9	inactive
21	TMPRSS2	3	-1.53	51.6	-1.11	77.1	inactive
22	OR4C6	1	3.58	153	3.21	73.4	active
23	OR4C6	2	-0.976	62.5	0.0743	68.5	inactive
24	OR4C6	3	2.16	125	1.64	90.7	inactive
25	JMJD6	1	2.23	126	1.84	86.8	inactive
26	JMJD6	2	-0.0267	81.4	0.483	80	inactive
27	JMJD6	3	0.414	90.1	0.429	89.9	inactive
28	UNC13C	1	0.724	96.3	0.191	102	inactive
29	UNC13C	2	-0.55	70.9	-0.847	99.1	inactive
30	UNC13C	3	-1.49	52.2	-1.08	77.5	inactive
31	AGR2	1	-0.737	67.2	-0.419	83.9	inactive
32	AGR2	2	0.159	85.1	0.267	88.6	inactive
33	AGR2	3	1.44	111	1.39	85.8	inactive
34	KRT2	1	-0.367	74.6	-0.808	103	inactive
35	KRT2	2	1.4	110	0.628	104	inactive
36	KRT2	3	0.635	94.5	0.786	85.9	inactive
37	SLC25A30	1	-0.137	79.2	-0.295	95.6	inactive
38	SLC25A30	2	0.0147	82.2	0.426	82.1	inactive
39	SLC25A30	3	-0.765	66.7	0.0231	74.1	inactive
40	OR6C70	1	2.86	139	2.64	77.4	inactive
41	OR6C70	2	-1.81	45.9	-1.67	79.7	inactive
42	OR6C70	3	-0.402	73.9	0.172	78.9	inactive
43	NACA2	1	0.65	94.8	2.55	54.1	inactive
44	NACA2	2	4.1	164	3.69	69.2	active
45	NACA2	3	0.674	95.3	1.47	72.2	inactive
46	RPP21	1	1.55	113	1.05	95.6	inactive
47	RPP21	2	-0.13	79.3	1	68.1	inactive
48	RPP21	3	1.46	111	1.54	82.5	inactive
49	LOC107985384	1	4.35	168	2.39	100	active
50	LOC107985384	2	-0.849	65	-1.09	96.7	inactive
51	LOC107985384	3	0.33	88.5	0.262	92.3	inactive
52	GALC	1	0.18	85.5	-0.0789	97.5	inactive
53	GALC	2	0.233	86.5	-0.267	104	inactive
54	GALC	3	0.464	91.1	-0.653	121	inactive
55	HSDL1	1	-0.878	64.4	-0.65	85.4	inactive
56	HSDL1	2	1.69	116	1.58	85.3	inactive
57	HSDL1	3	1.53	112	2.21	70	inactive

3 consecutive reagents already listed, for reference:
no.	gene	reagent no.	total luciferase, z-score	total luciferase, % of control	luciferase per cell, z-score	viable cells, % of control	call
13	PCDHGB4	1	0.324	88.3	-0.41	110	inactive
14	PCDHGB4	2	0.0183	82.3	-0.573	107	inactive
15	PCDHGB4	3	0.217	86.2	-0.565	112	inactive
